We go through one molecule from paper PMC5833782.

Protein sequences, listed by entry. Tags and fused reporters are not part of them.
UniProt P35222: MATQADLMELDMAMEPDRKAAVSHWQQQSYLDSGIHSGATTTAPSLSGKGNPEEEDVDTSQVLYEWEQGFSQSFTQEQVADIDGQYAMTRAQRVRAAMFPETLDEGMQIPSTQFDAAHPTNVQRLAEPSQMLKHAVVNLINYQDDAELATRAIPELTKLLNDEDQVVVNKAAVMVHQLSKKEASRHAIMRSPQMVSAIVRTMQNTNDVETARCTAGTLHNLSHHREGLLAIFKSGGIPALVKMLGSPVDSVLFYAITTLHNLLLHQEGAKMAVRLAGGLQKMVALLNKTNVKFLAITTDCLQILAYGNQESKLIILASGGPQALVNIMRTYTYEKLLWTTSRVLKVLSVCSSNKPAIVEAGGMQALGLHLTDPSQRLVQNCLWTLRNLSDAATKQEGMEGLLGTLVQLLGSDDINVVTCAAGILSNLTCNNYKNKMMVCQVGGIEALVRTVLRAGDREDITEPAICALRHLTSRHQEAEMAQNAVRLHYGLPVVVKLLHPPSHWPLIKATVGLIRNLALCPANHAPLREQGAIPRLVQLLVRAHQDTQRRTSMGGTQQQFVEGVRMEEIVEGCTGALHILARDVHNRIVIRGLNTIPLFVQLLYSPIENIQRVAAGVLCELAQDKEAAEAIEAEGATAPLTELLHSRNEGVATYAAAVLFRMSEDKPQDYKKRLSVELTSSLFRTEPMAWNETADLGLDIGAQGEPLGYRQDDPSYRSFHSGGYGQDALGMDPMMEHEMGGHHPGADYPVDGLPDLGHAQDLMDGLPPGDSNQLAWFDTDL

The assay concerns the target β-catenin (human (endogenous in MCF7)) (UniProt P35222). The assay is described as follows: co-IP; endogenous IP from MCF7 cell extracts with anti-β-catenin antibody or non-specific IgG and protein G-agarose beads, 4 °C overnight, immunoblotting; control cells and cells with stable TMEM170B knockdown. For orientation: A western blot detects proteins with antibodies after separation by electrophoresis.

Results are given in words; binding and its absence hold for the method and conditions named. In cells and extracts the contact can be indirect. Some results given as binding are weak or reduced against the parent protein; the word gives no strength.

B1: Transmembrane protein 170B (protein, UniProt Q5T4T1 1-132)
chain: MKAEGGDHSMINLSVQQVLSLWAHGTVLRNLTEMWYWIFLWALFSSLFVHGAAGVLMFVMLQRHRQGRVISVIAVSIGFLASVTGAMITSAAVAGIYRVAGKNMAPLEALVWGVGQTVLTLIISFSRILATL
In the case of B1, the binding result is “binds”.
